Out of some 31,000 sequences screened, about 1,400 (4.5%) were called active.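 The calls were made as follows: active = median seed-adjusted z-score above 1 or below -1; inactive = the rest.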 The list shows a part of the results.

This experiment is described as follows: Novel Modifiers of Survival Motor Neuron (SMN) Protein: Gene Identification via Genome-wide siRNA Screen.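 Also: luminescence tracks full-length SMN protein made from the SMN2 reporter.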 Conditions: HEK293T SMN2-luciferase reporter, siRNA knockdown, 72 h; actives lie on both sides. In a few lines:
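siRNA screen, 10418 genes ×3 siRNAs; 1 pmol/well, lipid reverse transfection into HEK293T SMN2-luc reporter line. 72 h, 37 °C, 5% CO2; ONE-Glo readout. Data: neg-ctrl normalized, log10, MAD; hit = MAD >1.0 or < -1.0.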
For the sequence AGUUCUCCGUAUUCGAGCATT against SLC25A41, the median seed-adjusted z-score was inactive: 0.0703. The value for GGACCUUUGAGGUUGAGGATT against TLL2 was inactive: 0.195; that for GCUUCAUCUUUGGAUAUCATT against RNF160 was inactive: -0.163. For GCAUAGAAGGCUUCACGAATT against PLCH1, the median seed-adjusted z-score is inactive: -0.00634. The value for CAGUAAGAAUUGAUCGUUUTT against YOD1 was inactive: 0.216. As to CCCUAGUGUUCAUCAAGUATT against PSEN2, the median seed-adjusted z-score was inactive: -0.147. The value for CGAGCUAUGUGAAUGCAAUTT against HSPG2 was inactive: 0.478; that for CGCUGAUGACCGGGCUUUATT against SLC26A1 was inactive: 0.377. The value for GACGACUUCUUGAACAGAATT against ZNF207 was active: -3.1. The value for GAUUGAAUCAAAUGCUGAATT against HTRA4 was inactive: 0.838.

For CCGUCACUGAAGUCAAUAATT against CACNA1F, the median seed-adjusted z-score is inactive: 0.22.

In the case of CGACAUAUCUUGUUAACUUTT against HMGN4, the median seed-adjusted z-score is inactive: -0.0471. Take GCAUUGUGAAUAUAAUGAATT against ZNF569: the median seed-adjusted z-score is inactive: 0.425.

As to GCAGAUAAUUGGGAACUGUTT against LMBR1L, the median seed-adjusted z-score is inactive: 0.349. The value for GUUUCAACAUGACAGCUAATT against LIPG was inactive: -0.00236; that for ACAACCUACUUAUCCAUGATT against OSR1 was inactive: -0.185; that for GGAGUAAGAGUGGACUGAATT against PIAS4 was inactive: 0.265.

As to CGAGAAGAGGAUUAAAGGATT against HAND1, the median seed-adjusted z-score was inactive: 0.161. In the case of CCAGGUGCAUGUUUGCCUATT against POLG, the median seed-adjusted z-score is inactive: 0. The value for GAAUUACGGAGGAAUCAUUTT against TCEB3B was inactive: 0.0434; that for GGCUACUAUUAUCUCAAUATT against TPCN1 was inactive: 0.139; that for CACUCUCAAUGGGACUGUATT against NR3C1 was inactive: -0.47. For the sequence GCAUCGGCCUGAAAGCAGUTT against ZSCAN2, the median seed-adjusted z-score is inactive: -0.428. For the sequence GGACGGAUACAUAAACAAATT against KCNIP1, the median seed-adjusted z-score was inactive: -0.0767. With GGACAAUCUUUACCUCCUATT against VSX2, the median seed-adjusted z-score was inactive: -0.333. The value for GGAACAACCUAGAAGCUUUTT against VRK3 was inactive: -0.526; that for CAUUGUUUCGAGAACGUGATT against GNA15 was inactive: 0.582; that for CCCAAGAAAUAUUAACAUUTT against AP3S1 was inactive: 0.787. In the case of GGAUGAAGCCGACCGAAUATT against DDX47, the median seed-adjusted z-score was inactive: -0.398. The value for CCUGGAAACUUGACGGAGATT against SHARPIN was inactive: -0.00778; that for CAAGCGAACUCCUCAGUUATT against 14-Sep was inactive: 0.227; that for CCUUUGUAGUUAAUCAGGATT against ZNF577 was inactive: -0.756. Regarding CAUUCAUACAAAACCCAAUTT against NLGN4Y, the median seed-adjusted z-score is inactive: 0.317. The value for GCAAUAUCCUUUGACAACUTT against GABRB3 was inactive: 0.0757; that for CACUUACUCAAGACAAGAATT against ZNF429 was inactive: 0.479. The value for GAAGUAUGAUUAUCGGGAATT against EXT1 was inactive: 0.489; that for GCAUUGCCUCUAUACCAGATT against MALT1 was inactive: 0.442. The value for CAAUAGCCCUGAAGACUAUTT against EPAS1 was inactive: -0.166; that for GGAGUUAUGCCUAUCCAAATT against GABRA4 was inactive: 0.549.

On to GGAUGGUAGUGAUAGCCCATT against FOXJ3, for which the median seed-adjusted z-score was inactive: -0.155.

With GCUCUGCCCUGUUUGAGAATT against KTI12, the median seed-adjusted z-score is inactive: 0.0814. As to CAACUUGUAAGAAACGGUUTT against PRDM10, the median seed-adjusted z-score is inactive: 0.344.

On to CAAAUCCUGUCUAACAAAATT against MYH7, for which the median seed-adjusted z-score is inactive: 0.659. The value for GCUUAUAUGGUGUACAUUUTT against ELOVL6 was inactive: 0.742.

In the case of GACCUACUGGAGACUAAUATT against TGS1, the median seed-adjusted z-score was inactive: -0.564. In the case of GCACUCUCCCAGUAUCUAUTT against KLRD1, the median seed-adjusted z-score was inactive: 0.876. The value for CACUGAAGCUGUACAACAATT against TSHR was inactive: 0.851; that for GGAAAAGAUUUACCUAUAATT against ETV3 was inactive: -0.039. For CAACCUCAGUCUCAGUAAATT against GABRA5, the median seed-adjusted z-score was inactive: 0. The value for GGUAAGGAAAGAUAGCUCATT against PHF16 was inactive: 0; that for UCGUGUUUCUAUUCUGAUATT against HOXA6 was inactive: -0.282. As to GGUCAUAGGUUUUGGAUCUTT against HIATL1, the median seed-adjusted z-score is inactive: 0.327. In the case of GGAUACUCUGAUGAAGAUATT against GNAQ, the median seed-adjusted z-score is active: -1.23. The value for GAAGUUCUCUUUACAACCATT against RFX2 was inactive: 0.271; that for GCAGCGACCUUUCAGAACATT against SALL1 was inactive: -0.526; that for GAAGGAUUCUGGUCUGAAATT against ACSL1 was inactive: 0.264. The value for CAAGGUAUCAUUAACCCAATT against TFIP11 was inactive: -0.0562; that for CGUUGAUUAUGCAAGGCAATT against GIT2 was inactive: 0.338. Take GUGCGUUUCUCAUACCGUATT against SLC6A6: the median seed-adjusted z-score is inactive: 0.0448. The value for GCAUCAUACUCUUCCUGUUTT against ALOX5AP was inactive: -0.0169; that for GAACAGUCCCUGGUUCCCATT against ECSIT was inactive: -0.116; that for CUAUUGUUAAGACAGAUUATT against AGK was inactive: -0.312. Consider GCCUUUAACGGACUUGCAATT against ZNF536, for which the median seed-adjusted z-score was inactive: -0.295. GGUCAAUUCUUCUUGGACATT against ALG11: the median seed-adjusted z-score was inactive: 0.183. The value for AGGUGACCAAGUUCGCCGATT against ARL4C was inactive: -0.61; that for GGAUUAACGAGAAUGAGAATT against FZR1 was inactive: 0.729; that for CCAUCCCUACAAUAGGUUUTT against ARL14 was inactive: 0.417. With GGAACCGAGAAGCUACUAATT against DDX3X, the median seed-adjusted z-score was inactive: 0.0136. In the case of GUAUCAUUUUCACUCUCGATT against PHKA2, the median seed-adjusted z-score was inactive: 0.304. The value for CAGUUGCAUUGGUUCCCAUTT against EZH1 was inactive: 0.268; that for GAGCUUCGCAAAAAUGUCATT against PKP3 was inactive: 0.205. As for AUUGCCUCCUUGAGCCUUATT against KCTD17, the median seed-adjusted z-score was inactive: 0.492.

Turning to GGAUGAACUUGGGAUGUUUTT against RNF135, the median seed-adjusted z-score is inactive: 0.581.

As for CCACCUAUUUGCACAAGGATT against POMT2, the median seed-adjusted z-score is inactive: -0.614.

Consider GGUCAGUCUUGAUUCUCGATT against RGS17, for which the median seed-adjusted z-score is inactive: -0.627. The value for AGCUGGUCGUAGCUAAGAATT against SFTPD was inactive: 0.289. In the case of GAUUUUAACUCUACUGCAATT against TSN, the median seed-adjusted z-score was inactive: 0.572. The value for GAACAAAAUCGGGAUCGAATT against TK2 was inactive: 0; that for GGGUCAUGCAGCAUCAAUATT against ITGAM was active: -1.56. The value for GCUGUGAACUGACUCUGCATT against UROD was active: 1.11; that for AGUAGUGAUUUGUAAACUUTT against DUSP22 was inactive: 0; that for GGACAUGUCCACACGCGAATT against PITX2 was inactive: -0.231. The value for GAAGCUCUCCAGACCAUUUTT against MAPK14 was inactive: 0.142; that for CGUAUACUUCCACAAGUAATT against HRB was inactive: 0.921; that for CAACUACAGUAGAUCGAGATT against UBR2 was inactive: 0.632. For GGUUCACAUUCAGACCAUATT against GOLGA2, the median seed-adjusted z-score was inactive: 0.18. For GGAAUACAUAUGUUGGAAATT against UPP2, the median seed-adjusted z-score was inactive: 0.586.

With GUAUGAUCGUGUAUACUGUTT against PCMTD2, the median seed-adjusted z-score was inactive: -0.0765. The value for AGCGCAUGAUUGACAGUGATT against CACNG1 was inactive: -0.452; that for GGAAGGAAAGGACAUAGAATT against CLEC4C was inactive: 0.664.

With CCAUCUCCCAGGUCUCUAATT against PBX4, the median seed-adjusted z-score is inactive: -0.855. As for CCACCUUUGCAACGCGGAATT against TPSD1, the median seed-adjusted z-score is inactive: 0.0848. Turning to GGAUAUUACAGCUAUUUGATT against USP10, the median seed-adjusted z-score is inactive: 0.182.

With GGCCGAGACUUCUCCUUCATT against GRIN2C, the median seed-adjusted z-score is inactive: -0.3. The value for GCAGUACAUGGAACGGCUATT against MTX1 was inactive: -0.159.

Take ACUCGUUCUUUGUCACAAATT against MYBBP1A: the median seed-adjusted z-score was inactive: 0.572. GGCUGUACUAUUAAUGACATT against COQ2: the median seed-adjusted z-score was inactive: -0.0121.

As for CAAGGAGUCAGACAUUUUATT against CDKN1A, the median seed-adjusted z-score was inactive: 0.158. On to GGAUCGUCAUAACAGAAUUTT against RPE65, for which the median seed-adjusted z-score was inactive: -0.655. The value for GGCUUGAUAUUUGACAGAATT against BBOX1 was inactive: 0.152; that for GGAUGACUCGGGACGUGUATT against INSRR was inactive: 0.13; that for GGAAGAGUCAUACAUCAAUTT against DDX55 was inactive: 0.507. As to GACUUGUCAGAAGUACAUATT against RNF125, the median seed-adjusted z-score is inactive: 0.204. The value for CCCGAAAACUUACACCAUATT against FARSB was inactive: 0.317; that for GAAUGUGCCGAGACAACUATT against SORCS3 was inactive: -0.151; that for GAUACUAUUUCAUGGAGAATT against DNAJA4 was inactive: 0.145. The value for AAGACACUUUGGUUCGUGATT against ZNF80 was inactive: 0.906; that for GCAAGUACCAAGUGGAGUATT against TMEM11 was inactive: -0.00121.

Values taken from PubChem BioAssay AID1347426 (Functional Genomics Laboratory (NCATS/FGL), 2020).
